Results are given in words; binding and its absence hold for the method and conditions named. Some entries that bind do so weakly or less than the wild type.
B1: Amid-WILVRLW-Ac (peptide)
peptide: WILVRLW
modifications: N-terminal amidation and C-terminal acetylation (so in the source)
B2: WILVRLW peptide (non-modified) (peptide)
peptide: WILVRLW

By UniProt entry, the sequences of proteins in these tests, tags left out.
UniProt P19838: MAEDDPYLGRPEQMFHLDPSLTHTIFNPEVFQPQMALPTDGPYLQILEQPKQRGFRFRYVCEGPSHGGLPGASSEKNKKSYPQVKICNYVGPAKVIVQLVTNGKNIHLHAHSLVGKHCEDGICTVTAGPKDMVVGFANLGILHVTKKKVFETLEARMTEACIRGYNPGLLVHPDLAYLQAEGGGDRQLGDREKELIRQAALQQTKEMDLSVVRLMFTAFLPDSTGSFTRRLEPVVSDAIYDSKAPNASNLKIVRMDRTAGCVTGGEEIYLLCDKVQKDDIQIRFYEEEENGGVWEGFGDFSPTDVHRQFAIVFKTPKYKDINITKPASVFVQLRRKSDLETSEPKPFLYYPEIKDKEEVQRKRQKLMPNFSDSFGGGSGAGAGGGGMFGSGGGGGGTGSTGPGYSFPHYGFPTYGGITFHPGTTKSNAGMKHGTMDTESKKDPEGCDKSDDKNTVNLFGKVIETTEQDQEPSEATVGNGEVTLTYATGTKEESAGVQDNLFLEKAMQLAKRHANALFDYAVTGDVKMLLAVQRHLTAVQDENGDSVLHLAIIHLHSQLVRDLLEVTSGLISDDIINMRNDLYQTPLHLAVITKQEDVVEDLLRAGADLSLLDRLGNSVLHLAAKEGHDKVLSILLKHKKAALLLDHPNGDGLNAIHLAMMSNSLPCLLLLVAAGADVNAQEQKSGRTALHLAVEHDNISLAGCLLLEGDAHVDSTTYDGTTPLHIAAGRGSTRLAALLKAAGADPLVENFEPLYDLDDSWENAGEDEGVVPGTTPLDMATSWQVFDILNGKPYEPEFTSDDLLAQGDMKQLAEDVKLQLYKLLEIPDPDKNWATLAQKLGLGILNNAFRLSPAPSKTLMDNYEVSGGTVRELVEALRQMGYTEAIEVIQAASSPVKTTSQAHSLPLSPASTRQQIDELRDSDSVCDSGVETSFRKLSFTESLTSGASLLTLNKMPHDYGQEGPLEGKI

What was measured:
[1] = molecular target: In vitro translated and 35S-labeled p105 (UniProt P19838); experiment: words of the legend; peptide competition in cell-free ubiquitination of 35S-p105 (FIG. 5)
[2] = molecular target: In vitro translated and 35S-labeled p105 (UniProt P19838); experiment: words of the legend; peptide competition in cell-free ubiquitination of 35S-p105 (FIG. 6)

Binder	binding [1]	binding [2]
B1	binds	
B2		binds

Reference: patent publication US20210348152A1 (TECHNION RESEARCH AND DEVELOPMENT FOUNDATION, published 2021)
